Measured values: the supplement of paper PMC10849652
Some of the results follow.

Protein sequences, listed by entry. Tags and fused reporters are not part of them. Lines headed by an entry give the natural chain unless they say otherwise; changes in a name come on top.
UniProt Q9H4I2: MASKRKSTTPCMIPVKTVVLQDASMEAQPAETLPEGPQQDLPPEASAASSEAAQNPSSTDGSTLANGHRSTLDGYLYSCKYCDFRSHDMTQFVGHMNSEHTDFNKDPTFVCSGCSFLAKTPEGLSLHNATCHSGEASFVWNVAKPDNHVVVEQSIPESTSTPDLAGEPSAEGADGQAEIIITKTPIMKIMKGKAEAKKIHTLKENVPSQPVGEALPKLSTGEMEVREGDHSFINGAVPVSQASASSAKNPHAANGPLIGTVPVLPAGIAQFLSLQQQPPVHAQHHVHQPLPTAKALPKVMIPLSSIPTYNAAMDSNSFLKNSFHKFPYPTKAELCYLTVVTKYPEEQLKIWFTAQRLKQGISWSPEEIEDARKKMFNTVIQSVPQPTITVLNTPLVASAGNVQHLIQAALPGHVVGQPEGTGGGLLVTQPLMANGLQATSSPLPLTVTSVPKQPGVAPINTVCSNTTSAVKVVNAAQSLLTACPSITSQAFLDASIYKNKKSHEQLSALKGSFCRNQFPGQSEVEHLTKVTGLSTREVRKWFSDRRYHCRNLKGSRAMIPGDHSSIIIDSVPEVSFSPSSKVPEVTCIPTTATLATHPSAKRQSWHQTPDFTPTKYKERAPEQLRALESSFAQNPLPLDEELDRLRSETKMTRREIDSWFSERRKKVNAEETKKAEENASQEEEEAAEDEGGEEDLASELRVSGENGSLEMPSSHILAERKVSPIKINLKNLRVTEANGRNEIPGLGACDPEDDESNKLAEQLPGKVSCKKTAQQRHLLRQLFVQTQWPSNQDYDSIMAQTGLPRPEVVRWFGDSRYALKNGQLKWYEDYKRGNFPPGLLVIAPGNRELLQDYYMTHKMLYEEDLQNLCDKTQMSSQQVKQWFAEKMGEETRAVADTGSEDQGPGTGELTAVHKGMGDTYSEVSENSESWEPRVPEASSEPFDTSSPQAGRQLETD
UniProt Q5SVZ6: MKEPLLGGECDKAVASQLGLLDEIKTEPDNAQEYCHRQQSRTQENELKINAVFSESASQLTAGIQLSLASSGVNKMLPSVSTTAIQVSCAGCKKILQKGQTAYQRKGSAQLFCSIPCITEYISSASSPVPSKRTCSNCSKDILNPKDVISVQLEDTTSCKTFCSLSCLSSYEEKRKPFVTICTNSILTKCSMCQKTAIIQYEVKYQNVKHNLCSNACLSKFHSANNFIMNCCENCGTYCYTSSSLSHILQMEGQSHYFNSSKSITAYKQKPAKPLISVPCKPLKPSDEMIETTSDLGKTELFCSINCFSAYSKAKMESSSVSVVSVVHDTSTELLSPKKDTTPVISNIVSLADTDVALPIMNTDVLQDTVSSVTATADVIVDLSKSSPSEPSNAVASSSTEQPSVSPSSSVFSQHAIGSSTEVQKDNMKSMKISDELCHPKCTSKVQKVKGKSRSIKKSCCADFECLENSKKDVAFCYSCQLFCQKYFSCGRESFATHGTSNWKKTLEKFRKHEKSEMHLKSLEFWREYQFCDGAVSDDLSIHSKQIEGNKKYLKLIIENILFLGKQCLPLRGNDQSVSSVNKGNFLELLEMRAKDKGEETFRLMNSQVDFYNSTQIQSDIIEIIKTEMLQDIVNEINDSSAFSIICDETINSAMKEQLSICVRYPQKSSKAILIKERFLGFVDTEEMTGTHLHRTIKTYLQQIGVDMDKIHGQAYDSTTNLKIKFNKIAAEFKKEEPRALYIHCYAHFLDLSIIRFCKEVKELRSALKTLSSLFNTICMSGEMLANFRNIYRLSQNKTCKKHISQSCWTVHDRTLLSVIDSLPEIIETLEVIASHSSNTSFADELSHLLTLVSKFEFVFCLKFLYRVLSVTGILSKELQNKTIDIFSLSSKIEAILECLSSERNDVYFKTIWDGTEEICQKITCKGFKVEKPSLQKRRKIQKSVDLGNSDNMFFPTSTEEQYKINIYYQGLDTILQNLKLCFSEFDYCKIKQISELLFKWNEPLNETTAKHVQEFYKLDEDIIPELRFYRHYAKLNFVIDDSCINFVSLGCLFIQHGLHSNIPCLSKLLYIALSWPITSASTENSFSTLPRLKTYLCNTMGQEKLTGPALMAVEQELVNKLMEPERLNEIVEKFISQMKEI
UniProt Q15649: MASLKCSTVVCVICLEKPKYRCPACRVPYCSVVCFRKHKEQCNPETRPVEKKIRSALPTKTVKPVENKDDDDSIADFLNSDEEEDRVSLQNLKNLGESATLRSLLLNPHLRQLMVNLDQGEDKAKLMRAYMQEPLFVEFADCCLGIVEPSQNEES
UniProt O43670: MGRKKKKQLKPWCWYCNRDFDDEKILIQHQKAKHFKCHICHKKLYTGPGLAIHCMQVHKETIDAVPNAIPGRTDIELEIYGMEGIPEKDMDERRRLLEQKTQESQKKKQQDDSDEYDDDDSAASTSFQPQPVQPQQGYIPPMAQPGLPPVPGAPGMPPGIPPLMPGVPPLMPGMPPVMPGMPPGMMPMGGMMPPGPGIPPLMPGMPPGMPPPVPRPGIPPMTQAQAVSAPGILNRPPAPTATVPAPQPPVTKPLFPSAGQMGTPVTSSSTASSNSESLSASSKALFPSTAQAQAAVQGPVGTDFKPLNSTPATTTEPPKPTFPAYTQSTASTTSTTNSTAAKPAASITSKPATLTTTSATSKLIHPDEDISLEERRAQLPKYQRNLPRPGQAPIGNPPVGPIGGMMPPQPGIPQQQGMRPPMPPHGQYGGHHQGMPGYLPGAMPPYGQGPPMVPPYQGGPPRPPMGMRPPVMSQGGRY
UniProt P17029: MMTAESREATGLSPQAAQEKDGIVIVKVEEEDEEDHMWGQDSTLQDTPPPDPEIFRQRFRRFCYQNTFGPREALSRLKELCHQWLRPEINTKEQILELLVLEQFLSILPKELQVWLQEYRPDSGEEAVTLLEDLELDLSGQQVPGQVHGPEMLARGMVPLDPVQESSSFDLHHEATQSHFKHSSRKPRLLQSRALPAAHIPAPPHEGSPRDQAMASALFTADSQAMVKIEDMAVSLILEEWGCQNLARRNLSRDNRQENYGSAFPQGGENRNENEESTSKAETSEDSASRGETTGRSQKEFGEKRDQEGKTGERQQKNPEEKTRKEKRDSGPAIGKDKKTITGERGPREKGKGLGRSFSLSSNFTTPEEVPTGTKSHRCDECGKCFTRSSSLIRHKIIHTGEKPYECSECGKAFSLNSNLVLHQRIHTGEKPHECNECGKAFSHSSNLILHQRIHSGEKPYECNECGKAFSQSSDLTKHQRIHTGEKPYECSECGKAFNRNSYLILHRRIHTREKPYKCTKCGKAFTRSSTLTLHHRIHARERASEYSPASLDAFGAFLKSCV
UniProt Q8NCK3: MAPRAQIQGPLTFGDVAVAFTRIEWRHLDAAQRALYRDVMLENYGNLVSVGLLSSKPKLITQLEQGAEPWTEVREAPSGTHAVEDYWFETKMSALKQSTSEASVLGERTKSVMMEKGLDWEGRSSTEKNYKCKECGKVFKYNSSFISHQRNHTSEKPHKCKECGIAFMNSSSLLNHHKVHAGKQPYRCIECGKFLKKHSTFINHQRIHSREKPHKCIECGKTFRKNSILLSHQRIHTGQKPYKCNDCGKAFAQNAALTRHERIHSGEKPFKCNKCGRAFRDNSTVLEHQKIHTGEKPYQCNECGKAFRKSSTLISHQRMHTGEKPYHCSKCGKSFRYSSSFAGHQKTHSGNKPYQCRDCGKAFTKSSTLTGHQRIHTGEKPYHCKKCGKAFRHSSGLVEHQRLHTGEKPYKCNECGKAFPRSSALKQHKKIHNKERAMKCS
UniProt Q15072: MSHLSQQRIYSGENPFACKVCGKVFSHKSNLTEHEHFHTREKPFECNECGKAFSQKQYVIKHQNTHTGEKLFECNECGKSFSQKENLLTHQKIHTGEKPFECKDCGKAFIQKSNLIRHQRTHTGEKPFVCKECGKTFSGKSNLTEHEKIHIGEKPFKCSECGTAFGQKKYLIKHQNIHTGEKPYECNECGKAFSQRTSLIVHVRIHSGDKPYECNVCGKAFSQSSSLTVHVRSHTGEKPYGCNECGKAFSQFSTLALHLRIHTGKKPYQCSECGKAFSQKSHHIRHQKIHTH
UniProt Q6IQ21: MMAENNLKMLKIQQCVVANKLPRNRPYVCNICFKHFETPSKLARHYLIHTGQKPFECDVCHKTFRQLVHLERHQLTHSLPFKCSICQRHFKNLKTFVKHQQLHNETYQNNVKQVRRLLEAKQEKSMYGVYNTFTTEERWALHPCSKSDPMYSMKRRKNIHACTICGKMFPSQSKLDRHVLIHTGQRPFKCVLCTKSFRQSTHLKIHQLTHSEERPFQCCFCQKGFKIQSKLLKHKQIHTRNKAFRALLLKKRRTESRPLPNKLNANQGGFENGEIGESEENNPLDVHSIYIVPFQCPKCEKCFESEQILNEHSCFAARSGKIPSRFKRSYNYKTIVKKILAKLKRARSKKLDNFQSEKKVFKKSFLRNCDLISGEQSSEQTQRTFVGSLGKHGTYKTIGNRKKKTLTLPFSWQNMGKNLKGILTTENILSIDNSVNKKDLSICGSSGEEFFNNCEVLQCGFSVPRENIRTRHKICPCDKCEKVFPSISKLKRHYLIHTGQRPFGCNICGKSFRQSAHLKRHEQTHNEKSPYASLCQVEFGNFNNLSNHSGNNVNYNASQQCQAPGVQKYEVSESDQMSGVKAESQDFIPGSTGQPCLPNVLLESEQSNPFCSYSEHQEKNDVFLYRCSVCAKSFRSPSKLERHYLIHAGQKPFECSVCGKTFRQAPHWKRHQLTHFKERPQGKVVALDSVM
UniProt Q9Y2X9: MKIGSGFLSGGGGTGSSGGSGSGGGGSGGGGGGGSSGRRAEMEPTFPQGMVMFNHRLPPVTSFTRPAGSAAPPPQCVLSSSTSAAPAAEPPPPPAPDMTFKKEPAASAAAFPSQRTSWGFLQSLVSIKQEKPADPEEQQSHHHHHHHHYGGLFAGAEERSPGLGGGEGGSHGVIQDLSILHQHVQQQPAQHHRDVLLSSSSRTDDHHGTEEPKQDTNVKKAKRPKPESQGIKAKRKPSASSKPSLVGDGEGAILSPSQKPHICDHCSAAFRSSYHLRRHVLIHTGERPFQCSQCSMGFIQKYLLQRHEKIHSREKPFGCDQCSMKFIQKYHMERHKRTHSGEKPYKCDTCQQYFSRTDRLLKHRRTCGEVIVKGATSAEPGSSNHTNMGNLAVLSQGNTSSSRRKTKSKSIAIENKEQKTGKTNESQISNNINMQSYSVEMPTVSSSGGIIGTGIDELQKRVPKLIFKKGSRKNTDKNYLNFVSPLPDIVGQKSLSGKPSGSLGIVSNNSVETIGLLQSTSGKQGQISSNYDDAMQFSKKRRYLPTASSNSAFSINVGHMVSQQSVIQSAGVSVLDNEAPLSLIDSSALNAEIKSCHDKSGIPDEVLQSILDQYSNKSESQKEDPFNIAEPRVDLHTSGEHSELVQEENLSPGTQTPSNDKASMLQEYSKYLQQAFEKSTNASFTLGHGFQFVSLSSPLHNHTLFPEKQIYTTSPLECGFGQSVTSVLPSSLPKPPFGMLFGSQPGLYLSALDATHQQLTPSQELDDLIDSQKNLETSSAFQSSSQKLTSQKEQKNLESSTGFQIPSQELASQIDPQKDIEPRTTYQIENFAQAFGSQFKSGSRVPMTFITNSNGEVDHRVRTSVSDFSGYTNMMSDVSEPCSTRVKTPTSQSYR
UniProt K7EIQ3: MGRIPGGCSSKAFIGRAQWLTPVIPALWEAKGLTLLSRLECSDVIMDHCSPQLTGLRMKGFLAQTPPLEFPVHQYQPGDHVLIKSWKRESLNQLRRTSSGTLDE
UniProt P59817: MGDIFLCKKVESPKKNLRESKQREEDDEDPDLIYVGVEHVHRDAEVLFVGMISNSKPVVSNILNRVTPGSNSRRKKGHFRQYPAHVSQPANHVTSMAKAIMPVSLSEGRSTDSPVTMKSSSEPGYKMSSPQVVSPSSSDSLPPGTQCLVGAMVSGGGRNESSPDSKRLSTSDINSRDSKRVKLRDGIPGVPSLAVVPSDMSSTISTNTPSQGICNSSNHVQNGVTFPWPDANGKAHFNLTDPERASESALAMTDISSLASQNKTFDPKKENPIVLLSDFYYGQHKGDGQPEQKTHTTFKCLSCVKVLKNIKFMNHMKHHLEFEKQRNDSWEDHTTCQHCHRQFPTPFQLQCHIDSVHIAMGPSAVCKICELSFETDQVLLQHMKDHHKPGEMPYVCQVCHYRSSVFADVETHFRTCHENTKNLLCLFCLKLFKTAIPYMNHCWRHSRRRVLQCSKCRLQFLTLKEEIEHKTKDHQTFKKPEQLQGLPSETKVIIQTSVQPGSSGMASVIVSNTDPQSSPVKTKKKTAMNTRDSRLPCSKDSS

Legend:
Assay in all cases: log2 fold change, soluble protein after heating vs DMSO (PISA); higher = thermal stabilisation; K562 lysate, 10 uM; active = over 0.2 and 3.5 SD of the protein, either way, in both replicates (recomputed)
vemurafenib = compound: CCCS(=O)(=O)Nc1ccc(F)c(C(=O)c2c[nH]c3ncc(-c4ccc(Cl)cc4)cc23)c1F [vemurafenib]
Method in brief: (§1)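 Quantification was by TMTpro 16plex LC-MS/MS with equalised channel sums, applied to the supernatant after 21,000xg for 90 min. Samples were crude K562 extract at 1 mg/mL protein in PBS pH 7.4 with 1 mM MgCl2, treated with 10 μM compound for 30 min, heated for 3 min across 48°C-58°C, pooled and brought to 0.5% NP-40 at 4°C. Values are log-two fold changes in thermal stability relative to solvent controls, from duplicates.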

[1] = compound: CCCS(=O)(=O)Nc1ccc(F)c(C(=O)c2c[nH]c3ncc(Cl)cc23)c1F
Method in brief: as §1

barasertib = compound: CCN(CCCOc1ccc2c(Nc3cc(CC(=O)Nc4cccc(F)c4)[nH]n3)ncnc2c1)CCOP(=O)(O)O [barasertib]
Method in brief: as §1

volasertib = compound: CC[C@@H]1C(=O)N(C)c2cnc(Nc3ccc(C(=O)N[C@H]4CC[C@H](N5CCN(CC6CC6)CC5)CC4)cc3OC)nc2N1C(C)C [volasertib]
Method in brief: as §1

[2] = compound: CCn1c(C(=O)N(C2CC2)C2CC2)cc2c3c(ncn3C)c(Nc3cc(C)n(C)n3)nc21
Method in brief: as §1

[3] = compound: CCn1cc(-c2ccnc3[nH]c(-c4cccc(CN(C)C)c4)cc23)c(-c2ccc(NC(=O)N(C)C)cc2)n1
Method in brief: as §1

[4] = compound: CN1CCC(CNc2ccc3ncc(-c4cccc(OC(F)(F)F)c4)n3n2)CC1
Method in brief: as §1

saracatinib = compound: CN1CCN(CCOc2cc(OC3CCOCC3)c3c(Nc4c(Cl)ccc5c4OCO5)ncnc3c2)CC1 [saracatinib]
Method in brief: as §1

alvocidib = compound: CN1CC[C@H](c2c(O)cc(O)c3c(=O)cc(-c4ccccc4Cl)oc23)[C@H](O)C1 [alvocidib]
Method in brief: as §1

Tubastatin A = compound: CN1CCc2c(c3ccccc3n2Cc2ccc(C(=O)NO)cc2)C1 [Tubastatin A]
Method in brief: as §1

defactinib = compound: CNC(=O)c1ccc(Nc2ncc(C(F)(F)F)c(NCc3nccnc3N(C)S(C)(=O)=O)n2)cc1 [defactinib]
Method in brief: as §1

[5] = compound: CNc1nc(-c2ccc3c(N)n[nH]c3c2)cc(N2C[C@@H](C(=O)NC3CCCCC3)CC[C@H]2C)n1
Method in brief: as §1

alisertib = compound: COc1cc(Nc2ncc3c(n2)-c2ccc(Cl)cc2C(c2c(F)cccc2OC)=NC3)ccc1C(=O)O [alisertib]
Method in brief: as §1

[6] = compound: COc1cc2nc(-c3cc(F)ccc3O)nc(N[C@@H]3CNC[C@H]3C(C)(C)O)c2cc1OC
Method in brief: as §1

gefitinib = compound: COc1cc2ncnc(Nc3ccc(F)c(Cl)c3)c2cc1OCCCN1CCOCC1 [gefitinib]
Method in brief: as §1

[7] = compound: CC[C@@H]1C(=O)N(C)c2cnc(Nc3ccc(C(=O)NC4CCN(C)CC4)cc3OC)nc2N1C1CCCC1
Method in brief: as §1

sotrastaurin = compound: CN1CCN(c2nc(C3=C(c4c[nH]c5ccccc45)C(=O)NC3=O)c3ccccc3n2)CC1 [sotrastaurin]
Method in brief: as §1

[8] = compound: CNC(=O)C1=CC=CC=C1NC2=NC(=NC=C2Cl)NC3=C(C=C(C=C3)N4CCOCC4)OC
Method in brief: as §1

encorafenib = compound: COC(=O)N[C@@H](C)CNc1nccc(-c2cn(C(C)C)nc2-c2cc(Cl)cc(NS(C)(=O)=O)c2F)n1 [encorafenib]
Method in brief: as §1

[9] = compound: COC(=O)[C@H](CCSC)NC(=O)C1=C(C=C(C=C1)NC[C@H](CS)N)C2=CC=CC=C2
Method in brief: as §1

Measured: log2 fold change

ZHX3 (UniProt Q9H4I2)
inactive: vemurafenib 0.019 | [1] 0.146 | barasertib 0.16 | volasertib -0.097 | [2] 0.082 | [3] 0.025 | [4] -0.094 | saracatinib 0.044 | alvocidib -0.015 | Tubastatin A -0.027 | defactinib 0.029 | [5] 0.006 | alisertib -0.096 | [6] 0.048 | gefitinib 0.026

ZMYM1 (UniProt Q5SVZ6)
inactive: vemurafenib 0.011 | [1] -0.017 | barasertib 0.05 | [7] -0.033 | volasertib -0.124 | [2] 0.017 | [4] 0.127 | saracatinib 0.013 | sotrastaurin 0.05 | alvocidib -0.162 | Tubastatin A -0.098 | [8] 0.071 | defactinib -0.035 | [5] 0.067 | encorafenib 0.063 | [9] -0.038 | alisertib -0.008 | [6] 0.03 | gefitinib 0.009
active: [3] -0.272

ZNHIT3 (UniProt Q15649)
inactive: vemurafenib -0.069 | [1] 0.175 | barasertib -0.146 | [7] 0.045 | volasertib 0.014 | [2] 0.014 | [3] 0.062 | [4] 0 | saracatinib 0.023 | sotrastaurin -0.049 | alvocidib -0.028 | Tubastatin A 0.033 | [8] 0.038 | defactinib 0.018 | [5] 0.133 | encorafenib 0.079 | [9] -0.032 | [6] 0.198

ZNF207 isoform 4 (UniProt O43670)
inactive: vemurafenib 0.057 | [1] -0.026 | barasertib -0.029 | [7] 0.118 | volasertib 0.026 | [2] -0.059 | [3] -0.029 | [4] 0.018 | saracatinib -0.002 | sotrastaurin 0.026 | alvocidib -0.031 | Tubastatin A 0.041 | [8] -0.001 | defactinib -0.015 | [5] 0.038 | encorafenib -0.032 | [9] -0.044 | alisertib -0.01 | [6] 0.015 | gefitinib -0.067

ZKSCAN1 (UniProt P17029)
inactive: vemurafenib 0.002 | [1] 0.028 | barasertib 0.039 | [7] 0.055 | volasertib -0.041 | [2] 0.019 | [3] 0.019 | [4] -0.077 | saracatinib -0.017 | sotrastaurin -0.099 | alvocidib 0.022 | Tubastatin A -0.065 | [8] 0.011 | defactinib 0.014 | [5] 0.021 | encorafenib 0.113 | [9] -0.044 | alisertib 0.107 | [6] -0.011 | gefitinib -0.235

ZNF485 (UniProt Q8NCK3)
inactive: [2] -0.037 | Tubastatin A 0.137

ZNF146 (UniProt Q15072)
inactive: saracatinib 0.247 | [5] 0.12

ZNF770 (UniProt Q6IQ21)
inactive: sotrastaurin 0.089

ZNF281 (UniProt Q9Y2X9)
inactive: [2] 0.011 | saracatinib -0.069 | sotrastaurin 0.028 | Tubastatin A -0.16 | [8] 0.025 | [5] 0.095

ZNF561-AS1 (UniProt K7EIQ3)
inactive: barasertib 0.216 | [2] 0.132 | Tubastatin A 0.079 | [8] 0.16

ZNF391 (UniProt Q9UJN7)
inactive: [7] 0.346 | encorafenib -0.164 | [9] 0.234

ZNF280A (UniProt P59817)
inactive: [2] -0.01 | saracatinib 0.086 | sotrastaurin -0.104 | Tubastatin A -0.089 | [8] 0.041 | [5] 0.045 | alisertib 0.085 | gefitinib -0.054

ZNF280A, A0A0G2JN84
inactive: sotrastaurin -0.045

Reprinted at random: two records from the list
ZNF281 (UniProt Q9Y2X9)
inactive: [2] 0.011 | saracatinib -0.069 | sotrastaurin 0.028 | Tubastatin A -0.16 | [8] 0.025 | [5] 0.095

ZNF391 (UniProt Q9UJN7)
inactive: [7] 0.346 | encorafenib -0.164 | [9] 0.234
